Assay results from paper PMC4335217.

Chains of the proteins cited; added tags and fusions are not shown.
UniProt Q4JK59: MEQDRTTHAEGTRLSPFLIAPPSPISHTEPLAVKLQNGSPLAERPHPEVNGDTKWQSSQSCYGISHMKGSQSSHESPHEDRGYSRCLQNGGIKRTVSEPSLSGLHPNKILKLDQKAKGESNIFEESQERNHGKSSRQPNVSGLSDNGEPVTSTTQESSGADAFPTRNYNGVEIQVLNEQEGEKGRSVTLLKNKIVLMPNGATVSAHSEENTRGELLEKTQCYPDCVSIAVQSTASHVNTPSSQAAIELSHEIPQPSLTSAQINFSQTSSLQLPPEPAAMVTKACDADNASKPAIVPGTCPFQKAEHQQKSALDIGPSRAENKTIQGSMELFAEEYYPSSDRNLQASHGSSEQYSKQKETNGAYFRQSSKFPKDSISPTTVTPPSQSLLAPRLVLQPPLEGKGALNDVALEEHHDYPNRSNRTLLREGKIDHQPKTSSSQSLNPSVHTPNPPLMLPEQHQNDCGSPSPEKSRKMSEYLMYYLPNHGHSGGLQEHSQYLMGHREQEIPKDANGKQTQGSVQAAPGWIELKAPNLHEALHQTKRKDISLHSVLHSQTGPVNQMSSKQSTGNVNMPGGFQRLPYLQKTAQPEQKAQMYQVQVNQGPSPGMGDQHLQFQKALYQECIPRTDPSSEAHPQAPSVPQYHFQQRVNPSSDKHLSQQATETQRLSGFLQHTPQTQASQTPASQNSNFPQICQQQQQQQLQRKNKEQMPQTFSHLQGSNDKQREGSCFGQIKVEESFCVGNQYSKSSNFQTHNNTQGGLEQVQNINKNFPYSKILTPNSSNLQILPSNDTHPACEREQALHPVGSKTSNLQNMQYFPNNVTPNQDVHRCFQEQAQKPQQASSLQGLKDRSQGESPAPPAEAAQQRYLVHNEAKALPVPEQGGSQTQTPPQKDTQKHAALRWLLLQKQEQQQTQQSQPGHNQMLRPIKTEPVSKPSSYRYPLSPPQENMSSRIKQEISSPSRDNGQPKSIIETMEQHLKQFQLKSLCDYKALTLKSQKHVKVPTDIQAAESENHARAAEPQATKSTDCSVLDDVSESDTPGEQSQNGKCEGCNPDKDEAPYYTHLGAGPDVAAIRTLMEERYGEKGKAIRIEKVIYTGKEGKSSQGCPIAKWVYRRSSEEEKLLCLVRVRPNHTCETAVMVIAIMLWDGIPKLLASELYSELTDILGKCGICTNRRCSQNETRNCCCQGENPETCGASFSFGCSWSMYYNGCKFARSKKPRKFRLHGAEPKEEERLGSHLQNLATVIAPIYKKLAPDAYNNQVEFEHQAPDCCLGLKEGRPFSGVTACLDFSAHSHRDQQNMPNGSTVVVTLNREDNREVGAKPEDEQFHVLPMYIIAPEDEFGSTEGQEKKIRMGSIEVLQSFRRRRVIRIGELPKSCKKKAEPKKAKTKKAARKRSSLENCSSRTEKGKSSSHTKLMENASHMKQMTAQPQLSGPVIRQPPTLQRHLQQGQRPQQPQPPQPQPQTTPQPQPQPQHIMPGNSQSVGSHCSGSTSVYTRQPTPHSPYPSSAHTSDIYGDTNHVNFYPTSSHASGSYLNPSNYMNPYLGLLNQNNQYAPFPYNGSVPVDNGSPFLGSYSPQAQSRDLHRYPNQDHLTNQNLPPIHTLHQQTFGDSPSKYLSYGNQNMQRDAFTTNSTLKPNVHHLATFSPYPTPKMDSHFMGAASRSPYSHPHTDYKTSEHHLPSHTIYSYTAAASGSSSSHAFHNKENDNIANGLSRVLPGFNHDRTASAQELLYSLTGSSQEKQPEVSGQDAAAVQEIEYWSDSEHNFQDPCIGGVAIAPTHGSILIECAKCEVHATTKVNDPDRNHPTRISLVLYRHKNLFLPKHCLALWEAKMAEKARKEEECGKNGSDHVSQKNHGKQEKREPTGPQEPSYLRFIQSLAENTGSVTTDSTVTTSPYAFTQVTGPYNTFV
UniProt Q3URK3: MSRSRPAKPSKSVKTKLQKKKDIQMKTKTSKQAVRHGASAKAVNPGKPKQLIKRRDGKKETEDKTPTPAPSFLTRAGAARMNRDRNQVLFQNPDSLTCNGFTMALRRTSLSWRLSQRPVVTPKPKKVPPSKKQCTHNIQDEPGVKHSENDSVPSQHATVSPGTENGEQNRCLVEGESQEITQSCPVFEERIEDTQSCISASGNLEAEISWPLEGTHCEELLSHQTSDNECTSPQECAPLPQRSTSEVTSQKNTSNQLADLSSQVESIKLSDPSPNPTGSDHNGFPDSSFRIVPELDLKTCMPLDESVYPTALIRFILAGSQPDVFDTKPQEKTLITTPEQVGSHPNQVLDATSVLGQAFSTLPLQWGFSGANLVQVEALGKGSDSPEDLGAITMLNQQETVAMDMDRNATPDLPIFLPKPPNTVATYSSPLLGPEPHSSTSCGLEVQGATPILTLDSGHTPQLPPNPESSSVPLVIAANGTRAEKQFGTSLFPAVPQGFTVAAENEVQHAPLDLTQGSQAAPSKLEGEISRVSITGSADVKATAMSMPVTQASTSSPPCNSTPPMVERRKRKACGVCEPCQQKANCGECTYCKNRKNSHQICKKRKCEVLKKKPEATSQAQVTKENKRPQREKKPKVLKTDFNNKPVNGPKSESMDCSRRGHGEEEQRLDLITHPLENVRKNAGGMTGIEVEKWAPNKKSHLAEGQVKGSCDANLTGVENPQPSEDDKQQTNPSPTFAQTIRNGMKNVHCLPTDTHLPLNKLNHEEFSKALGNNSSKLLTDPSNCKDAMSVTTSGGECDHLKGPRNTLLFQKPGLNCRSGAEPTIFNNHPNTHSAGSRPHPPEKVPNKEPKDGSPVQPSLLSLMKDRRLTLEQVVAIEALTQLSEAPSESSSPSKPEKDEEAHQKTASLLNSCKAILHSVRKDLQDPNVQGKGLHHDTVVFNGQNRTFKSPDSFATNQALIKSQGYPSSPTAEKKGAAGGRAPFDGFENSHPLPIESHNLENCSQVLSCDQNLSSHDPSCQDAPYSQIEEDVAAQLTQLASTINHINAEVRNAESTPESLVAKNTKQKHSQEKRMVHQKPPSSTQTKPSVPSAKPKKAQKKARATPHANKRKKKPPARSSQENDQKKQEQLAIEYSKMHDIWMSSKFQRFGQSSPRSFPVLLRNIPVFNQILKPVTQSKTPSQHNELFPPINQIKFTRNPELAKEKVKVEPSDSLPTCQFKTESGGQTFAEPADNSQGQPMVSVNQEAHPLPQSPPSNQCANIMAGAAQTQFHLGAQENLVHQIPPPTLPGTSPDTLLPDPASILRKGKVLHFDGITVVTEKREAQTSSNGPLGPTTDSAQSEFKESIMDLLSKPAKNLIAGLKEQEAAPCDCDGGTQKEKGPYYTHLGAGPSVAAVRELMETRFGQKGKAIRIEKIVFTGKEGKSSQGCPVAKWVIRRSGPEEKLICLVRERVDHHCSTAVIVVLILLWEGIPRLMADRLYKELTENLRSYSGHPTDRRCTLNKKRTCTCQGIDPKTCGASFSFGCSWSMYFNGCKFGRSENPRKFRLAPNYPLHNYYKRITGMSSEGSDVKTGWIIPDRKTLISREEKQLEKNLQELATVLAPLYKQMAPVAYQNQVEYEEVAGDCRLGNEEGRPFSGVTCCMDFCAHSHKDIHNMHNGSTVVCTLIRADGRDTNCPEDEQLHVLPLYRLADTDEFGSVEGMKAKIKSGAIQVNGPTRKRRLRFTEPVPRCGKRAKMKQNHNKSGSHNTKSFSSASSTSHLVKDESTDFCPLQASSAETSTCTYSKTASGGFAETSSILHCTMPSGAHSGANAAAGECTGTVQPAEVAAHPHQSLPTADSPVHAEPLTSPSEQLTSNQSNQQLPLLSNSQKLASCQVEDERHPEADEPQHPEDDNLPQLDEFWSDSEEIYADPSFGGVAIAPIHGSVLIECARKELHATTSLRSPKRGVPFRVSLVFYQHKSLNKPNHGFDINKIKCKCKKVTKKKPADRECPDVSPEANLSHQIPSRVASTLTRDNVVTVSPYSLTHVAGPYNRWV

Assays:
[1] = molecular target: TET2 (endogenous, mouse embryonic stem cells) (mouse (endogenous in J1 mESCs)) (UniProt Q4JK59); assay: affinity purification with mass spectrometry; endogenous TET1 or TET2 precipitated from J1 mESCs with monoclonal antibodies (clones 5D6, 5D8, 9F7) coupled to protein G-Sepharose; on-bead trypsin digest; LC-MS/MS; protein G beads without antibody as negative control
[2] = molecular target: TET1 (endogenous, mouse embryonic stem cells) (mouse (endogenous in J1 mESCs)) (UniProt Q3URK3); assay: as above
GFP-TET2 (murine) = GFP-TET2 (murine) (UniProt Q4JK59); assay: affinity purification with mass spectrometry; immunoprecipitation of GFP-tagged TET1, TET2 or TET3 expressed in HEK293T cells, followed by LC-MS/MS; pulldown of GFP as negative control

Binder | binding [1] | binding [2] | binding (GFP-TET2 (murine))
O-linked GlcNAc transferase OGT (endogenous, mouse embryonic stem cells) (enzyme, UniProt Q8CGY8 1-1046) MASSVGNVADSTEPTKRMLSFQGLAELAHREYQAGDFEAAERHCMQLWRQEPDNTGVLLLLSSIHFQCRRLDRSAHFSTLAIKQNPLLAEAYSNLGNVYKERGQLQEAIEHYRHALRLKPDFIDGYINLAAALVAAGDMEGAVQAYVSALQYNPDLYCVRSDLGNLLKALGRLEEAKACYLKAIETQPNFAVAWSNLGCVFNAQGEIWLAIHHFEKAVTLDPNFLDAYINLGNVLKEARIFDRAVAAYLRALSLSPNHAVVHGNLACVYYEQGLIDLAIDTYRRAIELQPHFPDAYCNLANALKEKGSVAEAEDCYNTALRLCPTHADSLNNLANIKREQGNIEEAVRLYRKALEVFPEFAAAHSNLASVLQQQGKLQEALMHYKEAIRISPTFADAYSNMGNTLKEMQDVQGALQCYTRAIQINPAFADAHSNLASIHKDSGNIPEAIASYRTALKLKPDFPDAYCNLAHCLQIVCDWTDYDERMKKLVSIVAEQLEKNRLPSVHPHHSMLYPLSHGFRKAIAERHGNLCLDKINVLHKPPYEHPKDLKLSDGRLRVGYVSSDFGNHPTSHLMQSIPGMHNPDKFEVFCYALSPDDGTNFRVKVMAEANHFIDLSQIPCNGKAADRIHQDGIHILVNMNGYTKGARNELFALRPAPIQAMWLGYPGTSGALFMDYIITDQETSPAEVAEQYSEKLAYMPHTFFIGDHANMFPHLKKKAVIDFKSNGHIYDNRIVLNGIDLKAFLDSLPDVKIVKMKCPDGGDNPDSSNTALNMPVIPMNTIAEAVIEMINRGQIQITINGFSISNGLATTQINNKAATGEEVPRTIIVTTRSQYGLPEDAIVYCNFNQLYKIDPSTLQMWANILKRVPNSVLWLLRFPAVGEPNIQQYAQNMGLPQNRIIFSPVAPKEEHVRRGQLADVCLDTPLCNGHTTGMDVLWAGTPMVTMPGETLASRVAASQLTCLGCLELIAKSRQEYEDIAVKLGTDLEYLKKIRGKVWKQRISSPLFNTKQYTMELERLYLQMWEHYAAGNKPDHMIKPVEVTESA | binds | binds | 
OGT found in GFP-TET pulldowns from HEK293T cells (enzyme, UniProt O15294 1-1046) MASSVGNVADSTEPTKRMLSFQGLAELAHREYQAGDFEAAERHCMQLWRQEPDNTGVLLLLSSIHFQCRRLDRSAHFSTLAIKQNPLLAEAYSNLGNVYKERGQLQEAIEHYRHALRLKPDFIDGYINLAAALVAAGDMEGAVQAYVSALQYNPDLYCVRSDLGNLLKALGRLEEAKACYLKAIETQPNFAVAWSNLGCVFNAQGEIWLAIHHFEKAVTLDPNFLDAYINLGNVLKEARIFDRAVAAYLRALSLSPNHAVVHGNLACVYYEQGLIDLAIDTYRRAIELQPHFPDAYCNLANALKEKGSVAEAEDCYNTALRLCPTHADSLNNLANIKREQGNIEEAVRLYRKALEVFPEFAAAHSNLASVLQQQGKLQEALMHYKEAIRISPTFADAYSNMGNTLKEMQDVQGALQCYTRAIQINPAFADAHSNLASIHKDSGNIPEAIASYRTALKLKPDFPDAYCNLAHCLQIVCDWTDYDERMKKLVSIVADQLEKNRLPSVHPHHSMLYPLSHGFRKAIAERHGNLCLDKINVLHKPPYEHPKDLKLSDGRLRVGYVSSDFGNHPTSHLMQSIPGMHNPDKFEVFCYALSPDDGTNFRVKVMAEANHFIDLSQIPCNGKAADRIHQDGIHILVNMNGYTKGARNELFALRPAPIQAMWLGYPGTSGALFMDYIITDQETSPAEVAEQYSEKLAYMPHTFFIGDHANMFPHLKKKAVIDFKSNGHIYDNRIVLNGIDLKAFLDSLPDVKIVKMKCPDGGDNADSSNTALNMPVIPMNTIAEAVIEMINRGQIQITINGFSISNGLATTQINNKAATGEEVPRTIIVTTRSQYGLPEDAIVYCNFNQLYKIDPSTLQMWANILKRVPNSVLWLLRFPAVGEPNIQQYAQNMGLPQNRIIFSPVAPKEEHVRRGQLADVCLDTPLCNGHTTGMDVLWAGTPMVTMPGETLASRVAASQLTCLGCLELIAKNRQEYEDIAVKLGTDLEYLKKVRGKVWKQRISSPLFNTKQYTMELERLYLQMWEHYAAGNKPDHMIKPVEVTESA |  |  | binds

These are yes or no findings as the source states them, for the method shown. Binding seen in cells or lysates may run through a third protein. Here binding means that the protein was enriched with, or labelled near, the bait; the list need not be complete. For part of these data: Tags and fused reporters may be left off the sequences shown.
